Assay [1] deals with astrocytes. In words: Extracellular lactate quantification. The assay is classed as cell-based. The note with it: Mus musculus, Astrocyte, 1.5 h; Prestwick hits; 0-100 μM, 90 min. As to the method:
Primary cultures of cerebrocortical astrocytes were obtained from 1-2-day-old OF1 mouse pups (Charles River Laboratories). Briefly, cortices were isolated and minced in small pieces under a dissecting microscope. The cells were incubated for 30 min at 37° C. in a solution containing 20 U/ml of papain enzyme (Worthington Biochemical), L-cysteine 1 mM (Sigma), and 10 kU/ml DNase I (Worthington Biochemical) for an enzymatic dissociation. […]
Secretion of L-lactate was determined in the extracellular medium of 96-well plated astrocytes after 90 min stimulation (at 37° C., in 5% CO2/95% air conditions) with the drug of interest. […]
Briefly, 200 μl of a Glycine (Sigma)-Semicarbazide (Acros) 0.2M pH 10 buffer containing 3 mM NAD (Roche) and LDH 14 U/ml (Roche) was added to each well of a 96-well plate containing 30 μl aliquots complemented with 20 μl fresh complete D5030 medium. […] After samples cooled down at room temperature, the fluorescence intensity (340 nm excitation/450 nm emission) that represents the amount of NADH produced was measured, and lactate concentration values were determined from a standard curve of L-lactate.
Levels of lactate secreted by astrocytes were measured in the extracellular medium at 90 min after stimulation with 20 hits from the Prestwick library (10 μM each), as shown in FIG. 1. n=6-10; Ctrl pos. is CCCP (2 uM). […]

Assay [2] relates to astrocytes. In words: MTT viability assay. It counts as cell-based. The conditions noted are these: Mus musculus, Astrocyte; Prestwick hits; cellular toxicity, 0-200 uM, 24 h. The method, then: Primary cultures of cerebrocortical astrocytes were obtained from 1-2-day-old OF1 mouse pups (Charles River Laboratories). Briefly, cortices were isolated and minced in small pieces under a dissecting microscope. The cells were incubated for 30 min at 37° C. in a solution containing 20 U/ml of papain enzyme (Worthington Biochemical), L-cysteine 1 mM (Sigma), and 10 kU/ml DNase I (Worthington Biochemical) for an enzymatic dissociation. Papain activity was stopped by the addition of fetal calf serum (FCS) to the solution, and a single-cell suspension was then obtained by mechanical dissociation, which consisted in cells trituration in a DMEM (D7777, Sigma-Aldrich) medium (supplemented with 44 mm NaHCO3, and 10 ml/L antibiotic/antimycotic solution) containing 10% FCS. The cells were seeded at an average density of 6×10^4 cells/cm^2 in poly-D-lysine-coated 96, 12 or 6-well culture plates, depending on their use, and incubated at 37° C. in a humidified atmosphere containing 5% CO2/95% air. Culture medium was renewed twice per week. Cells were stimulated and harvested between DIV14 and DIV17, when confluence and cell growth were optimal. […]
The amount of reduced MTT (formazan) solubilized in DMSO was then determined spectrophotometrically using absorbance at 570 nm (Safire 2; Tecan). […]

Counter-ions that a name gives are not always drawn.

Take `Clc1ccc2c(c1)CCc1cccnc1C2=C1CCNCC1` [Desloratadine]: in the assay on astrocytes [1], the half-maximal effective concentration (EC50) (in general, the concentration giving half of the maximal effect) came to 2.1 µM. The IC50 (usually the point on the concentration scale where inhibition reaches its midpoint) with astrocytes [2] was 11 µM.
In the case of `O=c1n(CCCN2CCN(c3cccc(Cl)c3)CC2)nc2ccccn12` [Trazodone hydrochloride, trazodone, reference compound], the concentration for a half-maximal effect (EC50) with astrocytes [1] was determined as 11 µM. The IC50 with astrocytes [2] was > 200 µM.

The values above are taken from patent publication US12274703B2, “Compositions and methods of treatment for neurological disorders comprising a dementia” (Gliapharm SA, priority 2017, dated 2025).
